# Laboratory results published in article PMC12040169 (PLOS Biology, 2025).
# The other results are listed elsewhere or left out.
# Test system: T1, CTL2-GFP (C. trachomatis L2/434/Bu, GFP-expressing)
# T1 construct: L2/434/Bu, GFP-expressing
# Design: species or system HeLa; Intracellular C. trachomatis growth in HeLa cells, bulk GFP fluorescence relative to DMSO
# Details: bulk GFP, single well; 28.5 h, 10 µM; inhibitor
row,SMILES,% of control remaining [%]
1,COc1ccc(OCCNC(=O)c2cc(Br)cnc2N(C)C(C)=O)cc1 [CBK076467],103.317
2,C=CCn1c(SCC(=O)Nc2ccc(C(=O)OC)cc2)nnc1-c1ccc(Br)cc1 [CBK101797],100.717
3,CC(C)n1nccc1C(=O)N1CCCC(c2cc3cccnc3[nH]2)C1 (stereo not shown) [CBK284930],117.634
4,CCN(CC)C(=O)CCn1c(-c2ccc(C)nc2)cc2cccnc21 [CBK282150],136.087
5,COc1cccc(CN2C(=O)COc3ccc(C(=O)c4cccs4)cc32)c1 [CBK286412],137.295
6,COc1ccc(Br)cc1C(=O)NCC1(c2ccccc2)CCOCC1 [CBK067051],103.052
7,CC1(C)CC(=O)C=C(C(=O)NCc2cccs2)O1 [CBK153292],112.052
8,O=C(c1cnn(C(=O)c2ccc3c(=O)n4c(nc3c2)CCC4)c1)c1ccccc1O [CBK295145],144.115
9,N[C@H]1CC[C@H](N(CCc2ccccc2)C(=O)N[C@@H]2C[C@H]2c2ccccc2)CC1 [CBK000474C],113.96
10,Cc1nn(C)cc1C(=O)O[C@H]1C[C@@H](c2ccc(F)cc2)N(C)C1=O [CBK283615],106.066
11,O=C(Nc1ccc(S(=O)(=O)NCCc2ccccc2)cc1)c1ccc2c(c1)OCO2 [CBK265591],86.2775
12,O=C(COc1ccccc1Cl)NC(=S)Nc1cccc(C(=O)O)c1 [CBK265662],128.872
13,COc1ccc2[nH]cc(CC(=O)NCc3ccc(-c4csnn4)cc3)c2c1 [CBK149313],88.3574
14,CC(=O)NCCc1c(C(=O)O)[nH]c2ccc(OCc3ccccc3)cc12 [CBK260945],100
15,CCOC(=O)c1c(NC(=O)Cn2cnc([N+](=O)[O-])n2)sc2c1CCCC2 [CBK262583],100
16,CC(C)NC(=O)C1(Cc2ccc(-c3ccccc3)cc2)CCN(C(=O)C2CCCC2)CC1 [CBK285751],114.357
17,CC(C)CS(=O)(=O)Nc1ccc(F)cc1F [CBK020615],109.879
18,c1ccc2c(c1)OCC(COc1cncc(N3CCNCC3)n1)O2 (stereo not shown) [CBK172357G],114.354
19,Cc1nc2cc(C(=O)N3CCC(c4ccccc4)C3)ccc2n1C (stereo not shown) [CBK281841],155.876
20,Cc1ccc(S(=O)(=O)c2ccc(C)c(S(N)(=O)=O)c2)cc1S(N)(=O)=O [CBK261664],123.718
21,CN(C)CCCC(=O)Nc1cccc2[nH]ccc12 [CBK159660],120.9
22,O=C(NC1CC2(CCCC2)Oc2ccccc21)C1CCOC1 (stereo not shown) [CBK283802],137.491
23,COc1cc(C(=O)N2CCC3(CC2)NC(=O)c2cc(Br)ccc2O3)ccc1C [CBK149464],113.18
24,C=CCNC(=O)N[C@H]1[C@H](O)[C@@H](N(CC)CC)[C@@H]2OC[C@H]1O2 [CBK288817],128.366
25,CC(C)N(C)CC(=O)N(C)c1nc2c(s1)CC(c1ccccc1)CC2 (stereo not shown) [CBK305535],115.352

row,SMILES,% of control remaining [%]
1,COC(=O)CCc1ccc(S(=O)(=O)N2CCCN(Cc3cc(F)c(F)c(F)c3)CC2)cc1 [CBK062998],118.036
2,Cc1c(F)cccc1CN(CC(C)(C)CN)C(=O)Nc1ccc(C(F)(F)F)cc1 [CBK002417C],96.6047
3,O=C(CN1C(=O)N2CCCN=C2c2ccccc21)N1CCCCC1 [CBK284395],132.193
4,CCOC(=O)C(C)NC(=O)c1cc2ccc(F)cc2[nH]1 (stereo not shown) [CBK283214],90.6769
5,Clc1cnc2nc(NCC3CCCCC3)sc2c1 [CBK067087],134.945
6,O=C(CN1CCOCC1)NCCNc1c(Cl)c(Cl)c(Cl)c(Cl)c1Cl [CBK266851],130.791
7,Cc1cc(=O)oc2cc(NC(=S)NNC(=O)c3ccc(Cl)s3)ccc12 [CBK266828],148.333
8,Cc1cc(C)nc(NC(=O)OCCN2CCN(C)CC2)c1 [CBK138235],108.675
9,CCOc1cc(/C=C2\S/C(=N/c3ccc(S(N)(=O)=O)cc3)NC2=O)c(Br)cc1O [CBK265622],131.104
10,CC(NC(=O)c1cn(C)c(=O)c2ccccc12)c1ccccn1 (stereo not shown) [CBK281886],109.448
11,CC1CN(S(=O)(=O)c2ccc(NC(=O)C3CC(=O)Nc4cc(F)ccc43)cc2)CC(C)O1 (stereo not shown) [CBK297933],153.382
12,Cc1cccc(C)c1OCC(=O)Nc1ccc(S(=O)(=O)N2CCOCC2)cc1 [CBK266967],121.409
13,N#Cc1ccccc1CSc1nc2ccc(NC(=O)c3ccc([N+](=O)[O-])cc3)cc2s1 [CBK265868],176.738
14,N=C(N)SCCCCCSC(=N)N [CBK278314B],109.731
15,COc1ccc(CC(=O)NC(CCSC)c2nnc3ccccn23)cc1 (stereo not shown) [CBK306077],165.244
16,COc1ccc(CNC(=O)[C@H]2C=CCN2C(=O)c2ccco2)cc1 [CBK284321],152.791
17,Cn1c(=O)n(CC(=O)N2CCC(C(=O)NC(c3ccccc3)c3ccccn3)CC2)c2ccccc21 (stereo not shown) [CBK060494],123.575
18,Fc1ccccc1-c1cn2ccnc2c(N2CCOCC2)n1 [CBK036584],133.495
19,COc1ccc(/C=N/NC(=O)CSc2nnc(C)n2-c2ccccc2)cc1 [CBK262812],103.687
20,CN1CCN(C(=O)c2ccc(-c3ccc4c(c3)OCO4)nc2NCc2cccnc2)CC1 [CBK076110],102.637
21,O=C(CCCN1C(=O)c2cccc3cccc(c23)C1=O)NCc1cccnc1 [CBK262190],100
22,COc1ccccc1C(C)N(C)CCC(=O)Nc1cc(C)on1 (stereo not shown) [CBK305098],113.81
23,COC(=O)Nc1nc2cc3cn[nH]c3cc2[nH]1 [CBK016129],101.604
24,CC1CCCCN1C(=O)c1cccc(Cn2cc(Br)c([N+](=O)[O-])n2)c1 (stereo not shown) [CBK058788],80.2992

# Given with tabs: entries from further up
row	SMILES	% of control remaining [%]
20	Cc1ccc(S(=O)(=O)c2ccc(C)c(S(N)(=O)=O)c2)cc1S(N)(=O)=O [CBK261664]	123.718
21	CN(C)CCCC(=O)Nc1cccc2[nH]ccc12 [CBK159660]	120.9
22	O=C(NC1CC2(CCCC2)Oc2ccccc21)C1CCOC1 (stereo not shown) [CBK283802]	137.491
23	COc1cc(C(=O)N2CCC3(CC2)NC(=O)c2cc(Br)ccc2O3)ccc1C [CBK149464]	113.18
24	C=CCNC(=O)N[C@H]1[C@H](O)[C@@H](N(CC)CC)[C@@H]2OC[C@H]1O2 [CBK288817]	128.366
25	CC(C)N(C)CC(=O)N(C)c1nc2c(s1)CC(c1ccccc1)CC2 (stereo not shown) [CBK305535]	115.352
1	COC(=O)CCc1ccc(S(=O)(=O)N2CCCN(Cc3cc(F)c(F)c(F)c3)CC2)cc1 [CBK062998]	118.036
2	Cc1c(F)cccc1CN(CC(C)(C)CN)C(=O)Nc1ccc(C(F)(F)F)cc1 [CBK002417C]	96.6047
3	O=C(CN1C(=O)N2CCCN=C2c2ccccc21)N1CCCCC1 [CBK284395]	132.193
4	CCOC(=O)C(C)NC(=O)c1cc2ccc(F)cc2[nH]1 (stereo not shown) [CBK283214]	90.6769
5	Clc1cnc2nc(NCC3CCCCC3)sc2c1 [CBK067087]	134.945
